Assay results as given in the supplement of paper PMC12889115.
Some of the results follow. These are raw signals, not scaled to a control.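 In the initial screen, polymyxin B was used at a concentration that permeabilizes Salmonella's outer membrane but not its inner membrane. Maximum growth was set by DMSO wells with or without polymyxin B. Since plates varied, data were ranked per plate, and compounds giving the lowest OD600 advanced as hits.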

Tested on: Salmonella enterica serovar Typhimurium SL1344
Assay: bacterial growth OD600 after 18 h with compound and polymyxin B; higher = more bacterial growth (less inhibition)
Conditions: 50 µM, Mueller-Hinton broth

Structure (SMILES) | bacterial growth OD600 (polymyxin B 0.75 µg/mL) | bacterial growth OD600 (polymyxin B 1 µg/mL)
O=C(C(c1ccccc1)c1ccccc1)N1CCOc2c(cc(-c3cccnc3)cc2OCCc2cccs2)C1 | 0.074 | –
O=C(NCCc1cccnc1)c1coc(COc2cccc(F)c2F)n1 | 0.815 | –
O=C(Cc1cccnc1)N1CCOc2ccc(C(O)C(c3ccccc3)c3ccccc3)cc2C1 (configuration not stated) | 0.787 | –
Cc1ccc(C)c(C(=O)N2CCC3(CC2)CC3C(=O)NCc2cccc(C)n2)c1 (configuration not stated) | 0.893 | –
COCCN1CCCC2(CCN(C(=O)NCc3ccccc3)C2)C1=O (configuration not stated) | – | 0.961
CCC(=O)C1CCCN(C(=O)CC2(c3ccccc3C)CC(=O)N(Cc3cccnc3)C2=O)C1 (configuration not stated) | 0.815 | –
CN1CCCCC1C(=O)NCc1cccnc1N(C)C1CCCCC1 (configuration not stated) | – | 0.903
Cc1nc(N2CCC(C(=O)NCCC(C)C)CC2)nc2ccccc12 | 0.921 | –
COc1ccc(OC)c(-c2cc(Cl)c3c(c2)CC(CNC(=O)Cc2csc(C)n2)O3)c1 (configuration not stated) | 0.562 | –
CCOC(=O)N1CCN(Cc2ccc3c(c2)CN(C(=O)Cn2ccc(C)n2)CCO3)CC1 | 0.786 | –
CCOc1ccccc1CN1CCN(Cc2cnn(C)c2C)CC1CCO (configuration not stated) | – | 0.884
O=C1CC(NS(=O)(=O)N2CCOCC2)CN1Cc1ccc(F)cc1 (configuration not stated) | – | 0.921
COc1cccc2c1OCCCN(Cc1nc(-c3ccccn3)no1)C2 | – | 0.935
COc1ccc(-n2cc(CNC(CO)CO)c(-c3ccccc3Cl)n2)cc1 | – | 0.782
CCN1CC(CN(C)Cc2nc(-c3ccccc3)no2)CC1=O (configuration not stated) | 0.749 | –
COCCC(=O)N1CCC(Oc2ccc(C(=O)N3CCCO3)cc2)CC1 | – | 0.908

Pulled one by one from the entries so far (2):
Structure (SMILES) | bacterial growth OD600 (polymyxin B 0.75 µg/mL) | bacterial growth OD600 (polymyxin B 1 µg/mL)
O=C(C(c1ccccc1)c1ccccc1)N1CCOc2c(cc(-c3cccnc3)cc2OCCc2cccs2)C1 | 0.074 | –
CCN1CC(CN(C)Cc2nc(-c3ccccc3)no2)CC1=O (configuration not stated) | 0.749 | –

(cont.)

Structure (SMILES) | bacterial growth OD600 (polymyxin B 0.75 µg/mL) | bacterial growth OD600 (polymyxin B 1 µg/mL)
CC(C)NC(=O)CN1CCN(Cc2nc(-c3ccccn3)no2)CC1 | – | 0.919
Cc1cnc(C(=O)NC2CC(=O)N(CCc3ccccc3)C2)cn1 (configuration not stated) | – | 1.06
CCn1nc(C)c(CN2CCC3(CC2)c2ccccc2[C@@H](NC(=O)c2cccs2)[C@@H]3OC)c1C | 0.871 | –
Cc1ncc2c(c1CNC(=O)c1ccc3c(c1)OCO3)CCN(C(=O)C(C)Oc1ccccc1)C2 (configuration not stated) | 0.703 | –
COc1cccc(CN(C)CC2CCCN(CCc3ccccc3F)C2)c1 (configuration not stated) | – | 0.714
COc1ccc(F)c(CN2CCOc3ccc(C(O)Cc4ccccc4)cc3C2)c1 (configuration not stated) | 0.006 | –
COCc1ccc(C(=O)NCC2Cc3cc(-c4nc(C)cnc4C)ccc3O2)o1 (configuration not stated) | 0.868 | –
Cc1ccc(C(=O)N(C)CC2CCCN(CCc3ccc(Cl)cc3)C2)s1 (configuration not stated) | – | 0.923
Cc1ccc2c(c1)CN(Cc1ccccn1)CC(c1ccsc1)O2 (configuration not stated) | 0.39 | –
CCC(=O)N[C@@H]1c2ccccc2C2(CCN(C(=O)CCCC(=O)OC)CC2)[C@H]1OCc1cccnc1 | 0.847 | –
Fc1ccc(Oc2ncccc2CNC2CCOCC2)cc1F | – | 0.98
CCc1csc(CNC(=O)c2ccc(NCc3ccccc3)nc2)n1 | – | 0.717
COCCN1C(=O)CC(CC(=O)N2CCN(c3cc(C)cc(C)c3)C(=O)C2)(c2ccccc2F)C1=O (configuration not stated) | 0.793 | –
CCN(CC)c1ncccc1CNC(=O)Nc1cccc(OC)c1 | – | 0.907
O=C(NCC1CCCN(CC#Cc2ccccc2)C1)c1ccc(F)cc1 (configuration not stated) | – | 0.78
COCC(=O)Nc1cc(C(=O)NCC(C)Oc2cccnc2)c2c(c1)ncn2CCc1ccccc1 (configuration not stated) | 0.844 | –
